# Hit rate of the full screen: of about 350,000 compounds, about 220 (0.063%) were called active. Inconclusive means that the source gave no clear call. Such entries were picked first, then a sample of the others. The call rests on the fitted dose curve; in most records, active means well fitted activation curve with a large enough effect; inconclusive means small, poorly fitted or top-dose-only effect; inactive means no such curve, though single readings can be large or run the other way. Potencies beside an inconclusive call are fits to weak or partial responses and may not hold up.
# Test: qHTS for Activators of Integrin-Mediated Alleviation for Muscular Dystrophy; further: nearly all actives have a fitted effect of over 60% in size;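 on activation: 100% = response of the positive control SU9516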
# Conditions: alpha7betagal myoblasts, beta-gal FDG fluorescence, 48 h; activation: at 38.3 µM (top of the series)
# Summary of the method: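 Alpha7betagal+/- myoblasts (passage 13) were plated 16-24 hr, then exposed to compounds (1:260 dilution of DMSO stock) for 48 hours at 37C. After MPER lysis, β-galactosidase reporter activity was read as FDG fluorescence (ex 480/em 540) after 30 minutes.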
# Potency means the concentration at half of the fitted maximal effect.
SMILES,Potency,activation
NS(=O)(=O)c1ccc(NC(=O)/C=C/c2ccc(S(=O)(=O)NCc3ccco3)cc2)cc1,"inconclusive: 0.501 µM [activator, full curve, poor fit]",–
Cc1c(C(=O)N(CCc2ccccc2)Cc2ccccc2)cccc1[N+](=O)[O-],–,inactive: -1.72%
CN(C)S(=O)(=O)c1ccc(C(=O)OCC2COC(C)(C)O2)cc1 (centres undefined),–,inactive: -5.01%
O=C(NCCc1ccccc1)c1ccc2c(c1)S(=O)(=O)c1ccccc1C2=O,–,inactive: 12.1%
COC(=O)c1cc2c(cc1Cl)N1CCCCCC1=NS2(=O)=O,"inconclusive: 10 µM [activator, partial curve]",–
CCN(CC)C(=O)c1ccccc1NC(=O)CN1C(=O)c2ccccc2C1=O,"inconclusive: 5.01 µM [activator, single point]",–
O=C(COC(=O)CN1C(=O)c2ccccc2C1=O)NC1CCCCC1,"inconclusive: 1.78 µM [activator, partial curve, poor fit]",–
CC(C)(CC(=O)O)CC(=O)Nc1ccc(Oc2ccc(C(C)(C)C)cc2)nc1,"inconclusive: 28.2 µM [activator, single point]",–
CC1CCN(S(=O)(=O)c2ccc3c(c2)c(=O)c(C(=O)N2CCCCC2)cn3C)CC1,–,inactive: -31.9%
O=C1c2ccccc2C(=O)c2c1cccc2N(CCO)CCO,–,inactive: -8.72%
COc1ccc(Cl)cc1C=CC=Nc1ccccc1O,–,inactive: -47.7%
CCOC(=O)C1=C(C)N(C)C(C)=C(C(=O)OCC)C1c1ccccc1,"inconclusive: 3.55 µM [activator, partial curve, poor fit]",–
CCCCN(CCO)c1ncnc2sc(-c3ccccc3)cc12,"inconclusive: 4.47 µM [activator, single point]",–
CC1CCN(c2ccc3c(c2)S(=O)(=O)c2cccc(C(=O)NCc4ccc(F)cc4)c2C3=O)CC1,–,inactive: 6.01%
O=C(Cn1cncn1)N/N=C/c1cc([N+](=O)[O-])ccc1O,"inconclusive: 3.98 µM [activator, single point]",–
O=C(N=C1SC2CS(=O)(=O)CC2N1c1ccc(F)c(Cl)c1)C1CC1 (centres undefined),"inconclusive: 3.16 µM [activator, single point]",–
Cc1ccc2cccc(OCC(=O)N3CCc4ccccc43)c2n1,"inconclusive: 3.98 µM [activator, partial curve, poor fit]",–
C[C@@H](C(=O)OCC(=O)c1ccccc1)N1C(=O)C2CCCCC2C1=O (some centres undefined),"inconclusive: 1 µM [activator, full curve, poor fit]",–
CCc1sc(NC(=O)CCC(=O)O)nc1-c1cc2ccccc2oc1=O,"inconclusive: 1.58 µM [activator, partial curve, poor fit]",–
Cc1cc(C)c2c(NC(=O)CCl)nn(C)c2n1,–,inactive: -56.9%
O=C(Cc1ccccc1)NN1C(=O)/C(=C/c2ccccc2C(=O)O)SC1=S,"inconclusive: 28.2 µM [activator, single point]",–
COc1cc(NC(=O)COC(=O)c2ccc(S(=O)(=O)N3CC(C)CC(C)C3)cc2)c(C)cc1[N+](=O)[O-] (centres undefined),"inconclusive: 12.6 µM [activator, partial curve, poor fit]",–

# In the list so far, these have fluorine.
SMILES,Potency,activation
CC1CCN(c2ccc3c(c2)S(=O)(=O)c2cccc(C(=O)NCc4ccc(F)cc4)c2C3=O)CC1,–,inactive: 6.01%
O=C(N=C1SC2CS(=O)(=O)CC2N1c1ccc(F)c(Cl)c1)C1CC1 (centres undefined),"inconclusive: 3.16 µM [activator, single point]",–

# Additional structures follow:

SMILES,Potency,activation
COc1ccc(NC(=O)c2ccc3c(=O)n(-c4ccc(OC)cc4OC)c(=S)[nH]c3c2)c(OC)c1,–,inactive: -33.5%
O=C(c1ccco1)N1CCN(Cc2c(F)cccc2Cl)CC1,"inconclusive: 5.01 µM [activator, single point]",–
O=C(CNC(=O)c1ccccc1)OCc1cc(=O)n2cc(Br)ccc2n1,–,inactive: 7.7%
O=[N+]([O-])c1ccc(N2CCN(c3ccc(F)cc3)CC2)cc1,"inconclusive: 28.2 µM [activator, single point]",–
COc1cc([N+](=O)[O-])ccc1NC(=S)N1CCN(c2ccccn2)CC1,"inconclusive: 3.55 µM [activator, partial curve, poor fit]",–
Cc1ccc(CNC(=O)c2ccccc2N)cc1,–,inactive: 16%
CCN(CC(=O)NC1CCCC1)S(=O)(=O)c1ccc(F)cc1,"inconclusive: 4.47 µM [activator, single point]",–
Cc1ccc2c(c1C)NC(C)CC2C (centres undefined),–,inactive: -14.3%
CCN(CC)S(=O)(=O)c1ccc(C(=O)NCCCn2ccnc2)cc1,"inconclusive: 12.6 µM [activator, single point]",–
Cn1c(-c2ccccc2)cc2ccccc21,"inconclusive: 1 µM [activator, full curve, poor fit]",–
COc1ccc(N2CCN(C(=O)CCC(=O)N3Cc4ccccc4Oc4ncccc43)CC2)cc1,–,inactive: -3.27%
CCOC(=O)c1sc(Nc2ccc(OCC)cc2)nc1C,"inconclusive: 15.8 µM [activator, partial curve, poor fit]",–
CSc1nc(C)c(C(=O)C[n+]2ccccc2C)cc1C#N,"inconclusive: 2.51 µM [activator, partial curve, poor fit]",–
COC(=O)Cn1c(=O)c2c(nc3n2CC(C)CN3Cc2ccccc2)n(C)c1=O (centres undefined),"inconclusive: 3.55 µM [activator, partial curve, poor fit]",–
CCC(=O)c1cc(F)ccc1OCC(=O)Nc1ccc2c(c1)OCCO2,"inconclusive: 1.78 µM [activator, partial curve, poor fit]",–
Nc1nccc(-c2ccc(-n3cnc4ccccc43)cc2)n1,active: 11.2 µM,–
CC1(C)Cc2c(sc(NC(=O)c3ccc(C(=O)c4ccccc4)cc3)c2C#N)C(C)(C)N1,–,inactive: 18%
O=C(Cn1[nH]c(=O)c2ccccc2c1=O)OCC(=O)c1ccc(Br)cc1,"inconclusive: 1.12 µM [activator, full curve]",–
CC(=O)Oc1c(C)cc(Cl)cc1C(=O)Nc1ccc([N+](=O)[O-])cc1Cl,–,inactive: -54.8%
CCc1nnc(NC(=O)c2cc(-c3ccccn3)nc3ccc(Br)cc23)s1,"inconclusive: 22.4 µM [activator, partial curve, poor fit]",–
N=c1c(S(=O)(=O)c2ccc(Br)cc2)cc2c(=O)n3ccccc3nc2n1C1CCCCC1,"inconclusive: 5.01 µM [activator, single point]",–
CC(=O)Nc1ccc(-c2csc(N/N=C(/C)c3ccccc3)n2)cc1,"inconclusive: 5.01 µM [activator, single point]",–

# — PubChem BioAssay AID624291 (National Center for Advancing Translational Sciences (NCATS), 2012)
